According to patent US20230203142A1, “TREATMENT OF METABOLIC DISORDERS THROUGH THE TARGETING OF A NOVEL CIRCULATING HORMONE COMPLEX” (The President and Fellows of Harvard College, priority 2020, published 2023):
At least one structure is not confirmed: it was looked up by name or label, or the drawing left a doubt.

System: INS1 cells
Assay: Cytosolic calcium flux, Fura-2 AM imaging
Conditions: absence of extracellular calcium, Thapsigargin

SMILES	ER calcium efflux
Nc1ncc2c(n1)CC(c1ccco1)CC2=O (centres unmarked) [NKY80]	rescued
CSc1nc(N)c2ncn([C@H]3[C@H](O)[C@H](O)[C@]4(COP(=O)(O)OP(=O)(O)O)C[C@H]34)c2n1 [MRS2365]	rescued
